The target in the assay is Recombinant human PSTPIP1 protein expressed in E. coli (human) (UniProt O43586). Nature of the assay: reducing SDS-PAGE; recombinant PSTPIP1 from E. coli run in the presence of DTT, Coomassie stain; both purified.

These are yes or no findings as the source states them, for the method shown.

B1: Recombinant human PSTPIP1 protein expressed in E. coli (natural protein, UniProt O43586 1-416, looked up)
chain: MMPQLQFKDAFWCRDFTAHTGYEVLLQRLLDGRKMCKDMEELLRQRAQAEERYGKELVQIARKAGGQTEINSLRASFDSLKQQMENVGSSHIQLALTLREELRSLEEFRERQKEQRKKYEAVMDRVQKSKLSLYKKAMESKKTYEQKCRDADDAEQAFERISANGHQKQVEKSQNKARQCKDSATEAERVYRQSIAQLEKVRAEWEQEHRTTCEAFQLQEFDRLTILRNALWVHSNQLSMQCVKDDELYEEVRLTLEGCSIDADIDSFIQAKSTGTEPPAPVPYQNYYDREVTPLTSSPGIQPSCGMIKRFSGLLHGSPKTTSLAASAASTETLTPTPERNEGVYTAIAVQEIQGNPASPAQEYRALYDYTAQNPDELDLSAGDILEVILEGEDGWWTVERNGQRGFVPGSYLEKL
notes: PSTPIP1, human, recombinant; monomer runs at 48 kDa; the purification is not described, only that several steps of the recovery need DTT; also called recombinant PSTPIP1; source: E. coli (pHIS8 plasmid), recovered recombinant protein
In the case of B1, the binding entry was “no binding (condition: in the presence of DTT)”.

Values taken from PMC2702820, “Pyrin Modulates the Intracellular Distribution of PSTPIP1” (PLoS ONE, 2009).
